## Screening data, single-dose tests

The chains behind the UniProt entries cited, without tags or fusion partners. Residues count along the entry.
UniProt Q4DA54, 1-478: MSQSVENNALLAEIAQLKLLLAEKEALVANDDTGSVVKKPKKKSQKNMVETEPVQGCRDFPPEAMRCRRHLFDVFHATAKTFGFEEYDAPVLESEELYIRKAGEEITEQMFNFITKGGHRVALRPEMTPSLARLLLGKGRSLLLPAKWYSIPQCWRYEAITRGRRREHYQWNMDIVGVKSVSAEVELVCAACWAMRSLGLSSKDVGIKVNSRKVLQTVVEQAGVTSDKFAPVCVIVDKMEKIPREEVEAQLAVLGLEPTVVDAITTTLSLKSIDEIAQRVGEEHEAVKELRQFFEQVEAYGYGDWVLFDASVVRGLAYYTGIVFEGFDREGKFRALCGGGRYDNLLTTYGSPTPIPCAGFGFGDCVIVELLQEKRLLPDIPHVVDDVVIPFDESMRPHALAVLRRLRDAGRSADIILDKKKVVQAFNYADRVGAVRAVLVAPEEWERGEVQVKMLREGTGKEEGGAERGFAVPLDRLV
UniProt P9WPC5, whole entry: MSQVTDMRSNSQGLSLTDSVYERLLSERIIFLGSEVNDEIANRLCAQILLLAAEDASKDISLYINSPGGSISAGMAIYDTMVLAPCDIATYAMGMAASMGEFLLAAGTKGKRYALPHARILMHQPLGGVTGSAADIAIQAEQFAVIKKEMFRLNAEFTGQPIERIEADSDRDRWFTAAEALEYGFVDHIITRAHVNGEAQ
UniProt P9WPC3, whole entry partner: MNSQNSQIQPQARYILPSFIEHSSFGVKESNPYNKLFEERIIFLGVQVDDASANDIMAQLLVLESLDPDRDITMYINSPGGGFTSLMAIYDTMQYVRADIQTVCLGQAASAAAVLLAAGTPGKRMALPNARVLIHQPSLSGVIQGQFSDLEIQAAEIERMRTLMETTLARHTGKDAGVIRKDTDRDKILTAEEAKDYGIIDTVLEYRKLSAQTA
UniProt Q8IDJ8, 1-583: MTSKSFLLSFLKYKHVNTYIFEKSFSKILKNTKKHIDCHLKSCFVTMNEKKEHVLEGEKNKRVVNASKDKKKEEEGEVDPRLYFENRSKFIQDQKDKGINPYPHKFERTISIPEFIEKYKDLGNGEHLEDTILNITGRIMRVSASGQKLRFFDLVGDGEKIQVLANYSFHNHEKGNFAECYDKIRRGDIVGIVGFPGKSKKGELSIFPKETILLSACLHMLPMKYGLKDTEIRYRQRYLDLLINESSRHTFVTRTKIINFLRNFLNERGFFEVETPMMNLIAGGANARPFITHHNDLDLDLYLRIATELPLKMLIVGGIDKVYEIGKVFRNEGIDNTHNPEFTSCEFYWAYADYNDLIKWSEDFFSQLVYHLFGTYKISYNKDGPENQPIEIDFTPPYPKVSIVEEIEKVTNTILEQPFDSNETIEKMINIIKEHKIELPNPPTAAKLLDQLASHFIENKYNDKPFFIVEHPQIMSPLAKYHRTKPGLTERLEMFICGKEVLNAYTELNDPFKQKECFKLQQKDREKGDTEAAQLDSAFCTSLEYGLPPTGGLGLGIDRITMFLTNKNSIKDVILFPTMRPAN

From ChEMBL document CHEMBL3988442, “University of Dundee, Small-Polar-MMV Screening Library” (2021).

Values are the deposited “Percent Effect”, in %. How 0% and 100% were set is not recorded. Most values in the screen are low, and negative values occur. Compounds were drawn at random from those tested, without regard to their results. Two or more numbers in one place are separate tests of the same structure; such repeats can differ widely. A dash means the value is not listed here; it may have been measured.

A: 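Cell assay of Leishmania donovani living inside macrophages; the read-out is not stated. Tested at 30 µM. Direction is inferred from retests: higher values go with stronger inhibition. Size under these conditions: about 69,000 compounds, about 1,000 of them at 50% or above in at least one test.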
B: 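Enzyme assay of histidyl-tRNA synthetase; the read-out is not stated. Target: Histidine-tRNA ligase, Trypanosoma cruzi CL Brener (UniProt Q4DA54). Concentration: 30 µM. Higher reads as stronger inhibition (inferred: compounds with an IC50 in retests scored well above the rest). Size under these conditions: about 69,000 compounds, about 31 of them at 50% or above in at least one test.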
C: 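ClpP1P2, Mycobacterium tuberculosis (UniProt P9WPC5 and UniProt P9WPC3). Protease assay of ClpP1P2, read by the AMC dye that it sets free. Compounds at 50 µM. Direction is inferred from only a few compounds that gave an IC50; most scored high, so higher reads as stronger inhibition. Most other retested compounds had strongly negative values. Of about 69,000 compounds tested this way, about 10 (0.015%) reached 50% or more in at least one test.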
D: 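Assay of Toxoplasma gondii numbers, read through their beta-galactosidase reporter with a colour substrate. Tested at 10 µM. The record gives no direction; the compounds picked for IC50 retests had high values, so higher reads as fewer parasites. About 67,000 compounds were tested under these conditions; 0.38% (about 260) showed 50% or more at least once.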
E: 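Enzyme assay of the cytosolic lysyl-tRNA synthetase in 384-well plates, read by luminescence. Target: Lysine-tRNA ligase, Plasmodium falciparum 3D7 (UniProt Q8IDJ8). Compounds at 30 µM. Higher reads as stronger inhibition, judged from the few compounds that gave an IC50. Size under these conditions: about 69,000 compounds, about 49 of them at 50% or above in at least one test.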

structure	A	B	C	D	E
CC(c1ccc(-c2cnc(N)nc2)cc1)N1CCOCC1 (stereo not shown)	3.816	3.448	-3.24	-3.21	-0.3681
OCC1CCCCN1Cc1nc(Cc2cccc(F)c2)no1 (stereo not shown)	13.68	1.093	-11.88	4.394	4.837
COc1cccc(C(=O)NS(=O)(=O)c2cccc(C#N)c2)c1OC	10.26	-0.3831	4.903	3.985	2.118
CCNC(=O)[C@@H]1C[C@@H](N)CN1Cc1ccc(Sc2ccc(C)cc2)o1	97.85	14.04	-1.2	7.387	5.499
O=C(O)C(F)(F)F.c1cc(C2CC2)n2cnc(C3CN(Cc4nccs4)CCO3)c2c1 (stereo not shown)	20.92	-	-	1.241	-
COc1cc(C)cc(OC)c1C(C(=O)O)N(C)Cc1c(C)nn(C)c1C (stereo not shown)	20.37	10.1	17.76	3.267	4.388
N#Cc1cccc(C(=O)N2CC[C@H]3[C@H]2CCN3CC2CC2)c1	-	-1.942	-6.044	-	-4.668
Cc1nn(C)c(Cl)c1C1CCCN1C(=O)c1cccn1C (stereo not shown)	-3.329	2.579	-14.39	-7.209	-1.446
O=S(=O)(CC1CCOCC1)NCc1ncc(-c2ccccc2)o1	17.97	2.521	1.049	-1.441	3.214
O=S(=O)(c1c(Cl)nc2sccn12)N1CCC2(CCNCC2)C1	51.47	10.77	-14.04	14.89	2.735
CC(=O)Cn1c(C)cc(=O)c2cc(F)ccc21	-5.382	-0.8929	-6.141	-5.637	3.486
Cn1cccc1C(=O)NC(C)(C(N)=O)c1cccc(C(F)(F)F)c1 (stereo not shown)	-12.5	-1.84	-9.281	-1.134	3.018
CSc1cccc(NC(=O)N2CCCC(CNC(=O)c3ccco3)C2)c1 (stereo not shown)	36.12	4.615	-4.162	-10.3	0.7917
[H][C@]12CN(C)CCN1C(=O)N(c1ccccc1)C2	3.313	-	-	1.982	-
Cn1cccc1C(O)CNS(=O)(=O)c1ccccc1Br (stereo not shown)	3.389 & 12.34	1.031	4.273	25.74	2.637
CC(=O)N1C[C@@H]2CN(S(=O)(=O)C3CC3)CCO[C@@H]2C1	-	3.175	-7.748	-	2.988
CCN1CCC2(CCC1=O)CN(c1cnc3ccccc3n1)CCN2C (stereo not shown)	17.86	8.939	-0.6169	6.012	2.135
CCc1nc(C)cn1C(=O)Nc1ccccc1	3.761	-25.43	-1.404	45.67	4.367
Cc1ccccc1CN(CCO)Cc1ncc[nH]1	-23.04	-8.696	-28.14	-19.2	2.806
Cc1ccc(C)c(C(O)CN(C)Cc2nnc3ccccn23)c1 (stereo not shown)	9.659	6.145	10.93	-2.031	-4.237
CCN(Cc1ccc2c(c1)OCCO2)C(=O)NCc1cc[nH]n1	-11.91	0.3774	18.79	-2.067	5.012
CN(C(=O)CN1CCCC1=O)C1CCCN(C2Cc3ccccc3C2)C1 (stereo not shown)	5.203	2.513	-16.27	-18.49	2.267
c1ccc(OCCN2CCC(c3cnccn3)CC2)cc1	35.27	6.513	21.36	15.95	1.239
CC(C)c1nsc(NC2CCOC3(CCCC3)C2)n1 (stereo not shown)	38.23	8.163	-5.511	6.629	2.622
O=C(O)C(F)(F)F.[H][C@@]12CCCO[C@]1([H])[C@H](Oc1ccccn1)CN2S(C)(=O)=O	3.731 & 12.55	-	-	7.336	-
Cc1cnc(N2C(=O)CSC2c2cccs2)s1 (stereo not shown)	15.3	11.34	12.59	23.43	-1.578
Cc1noc(C)c1CCCNc1cnccn1	2.81	6.186	4.198	-12.34	-0.02418
O=C(c1ccnc(N2CCOC(C(F)(F)F)C2)c1)N1CCCC1 (stereo not shown)	14.15	8.911	19.53	23.63	-2.334
Cc1ccc(NC2CCN(C(=O)c3cnc(C)s3)CC2)nn1	-3.931	4.151	-1.243	6.232	3.721
CC1CCCCN1S(=O)(=O)NCc1cccnc1OC1CCCC1 (stereo not shown)	-0.1398	10.71	-1.419	-1.323	4.585
OC1CCN([C@@H]2CCN(c3nc(-c4ccccc4)no3)C[C@H]2O)CC1	30.44	14.29	5.282	-1.269	3.829
Cc1nc(CN2CCc3ncnc(-c4ccccc4)c3CC2)cs1	-	3.941	-5.025	-	-2.879
Cn1ncc2c(NCC(=O)N3CCNCC3)nc(C(C)(C)C)nc21	20.52	7.407	-4.486	-7.214	4.424
COCCNC(=O)c1ccc2c(=O)n3c(nc2c1)CCCCCC3	3.85	5.263	2.752	22.96	-4.073
COCCNC(=O)c1ccc2c(=O)n3c(nc2c1)CCN(C)CC3	1.209	6.513	-2.954	14.87	-1.297
CCc1nc(CN(CC(N)=O)C(C)C)cs1	25.61	4.511	2.101	-	8.853
c1cncc(N2CCCC3(CCN(CC4CCCO4)CC3)C2)c1 (stereo not shown)	-	11.43	-19.4	-	3.137

The last 2 entries again:

structure,A,B,C,D,E
CCc1nc(CN(CC(N)=O)C(C)C)cs1,25.61,4.511,2.101,-,8.853
c1cncc(N2CCCC3(CCN(CC4CCCO4)CC3)C2)c1 (stereo not shown),-,11.43,-19.4,-,3.137